# Data: PMC12867140
# By UniProt entry, the sequences of proteins in these tests, tags left out.
# UniProt P01106: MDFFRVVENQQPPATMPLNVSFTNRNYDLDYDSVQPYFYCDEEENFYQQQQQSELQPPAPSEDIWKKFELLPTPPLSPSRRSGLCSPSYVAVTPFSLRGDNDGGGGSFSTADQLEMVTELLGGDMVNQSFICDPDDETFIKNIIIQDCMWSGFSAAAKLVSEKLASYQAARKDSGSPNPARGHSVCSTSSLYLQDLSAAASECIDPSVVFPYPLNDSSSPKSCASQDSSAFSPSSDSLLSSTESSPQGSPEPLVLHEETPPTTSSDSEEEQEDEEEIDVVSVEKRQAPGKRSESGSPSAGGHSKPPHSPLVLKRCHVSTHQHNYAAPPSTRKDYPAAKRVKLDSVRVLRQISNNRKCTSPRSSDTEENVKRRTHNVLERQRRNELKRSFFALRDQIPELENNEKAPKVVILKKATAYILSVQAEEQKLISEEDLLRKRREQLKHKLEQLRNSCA
# UniProt P46934: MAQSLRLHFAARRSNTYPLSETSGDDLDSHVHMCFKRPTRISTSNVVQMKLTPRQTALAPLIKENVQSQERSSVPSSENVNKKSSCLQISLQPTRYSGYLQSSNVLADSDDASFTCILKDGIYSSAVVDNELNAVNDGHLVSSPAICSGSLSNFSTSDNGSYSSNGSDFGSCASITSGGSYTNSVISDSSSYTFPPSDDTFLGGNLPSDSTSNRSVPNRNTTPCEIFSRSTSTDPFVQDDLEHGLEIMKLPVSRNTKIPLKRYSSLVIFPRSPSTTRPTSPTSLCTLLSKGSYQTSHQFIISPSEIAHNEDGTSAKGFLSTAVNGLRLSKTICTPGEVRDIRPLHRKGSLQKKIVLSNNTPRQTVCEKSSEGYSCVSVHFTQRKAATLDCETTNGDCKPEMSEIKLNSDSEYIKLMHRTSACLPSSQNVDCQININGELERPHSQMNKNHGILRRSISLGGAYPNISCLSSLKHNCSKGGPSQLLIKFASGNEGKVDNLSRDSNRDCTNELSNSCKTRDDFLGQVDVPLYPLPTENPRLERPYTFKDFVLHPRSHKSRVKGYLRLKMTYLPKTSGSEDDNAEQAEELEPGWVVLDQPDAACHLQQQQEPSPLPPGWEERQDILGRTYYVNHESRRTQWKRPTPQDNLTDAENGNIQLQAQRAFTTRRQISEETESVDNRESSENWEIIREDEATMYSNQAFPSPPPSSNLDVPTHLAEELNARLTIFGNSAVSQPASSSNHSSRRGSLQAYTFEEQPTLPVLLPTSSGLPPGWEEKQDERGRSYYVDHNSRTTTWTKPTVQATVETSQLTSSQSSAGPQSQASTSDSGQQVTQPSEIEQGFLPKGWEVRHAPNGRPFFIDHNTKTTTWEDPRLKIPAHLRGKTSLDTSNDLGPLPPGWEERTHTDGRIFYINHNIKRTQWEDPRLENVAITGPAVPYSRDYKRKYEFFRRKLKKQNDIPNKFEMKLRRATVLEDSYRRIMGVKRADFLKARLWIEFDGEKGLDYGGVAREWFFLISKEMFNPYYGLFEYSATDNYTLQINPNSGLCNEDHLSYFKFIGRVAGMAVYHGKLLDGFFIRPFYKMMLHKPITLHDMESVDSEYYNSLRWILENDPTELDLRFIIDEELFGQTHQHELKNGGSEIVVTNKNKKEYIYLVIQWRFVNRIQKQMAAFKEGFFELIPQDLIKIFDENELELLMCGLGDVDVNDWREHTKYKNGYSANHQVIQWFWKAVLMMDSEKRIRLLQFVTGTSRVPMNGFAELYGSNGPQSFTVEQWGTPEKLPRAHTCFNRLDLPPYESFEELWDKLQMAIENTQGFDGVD
# No constants are given. Whether binding was seen depends on the method and setting. Binding seen in cells or lysates may run through a third protein. Some results given as binding are weak or reduced against the parent protein; the word gives no strength.
# Target: c-Myc (human (endogenous in PANC-1 and AsPC-1)) (UniProt P01106)
# Experiment: co-IP; reciprocal co-IP of NEDD4 and c-Myc; endogenous co-IP in PANC-1 cells transfected with control or HDAC5 siRNAs
substance,measurement,value
NEDD4 (from UniProt P46934 1-1319) (enzyme),binding,binds
